We go through one substance from PMC12307474.

Chains of the proteins cited; added tags and fusions are not shown.
UniProt P31939: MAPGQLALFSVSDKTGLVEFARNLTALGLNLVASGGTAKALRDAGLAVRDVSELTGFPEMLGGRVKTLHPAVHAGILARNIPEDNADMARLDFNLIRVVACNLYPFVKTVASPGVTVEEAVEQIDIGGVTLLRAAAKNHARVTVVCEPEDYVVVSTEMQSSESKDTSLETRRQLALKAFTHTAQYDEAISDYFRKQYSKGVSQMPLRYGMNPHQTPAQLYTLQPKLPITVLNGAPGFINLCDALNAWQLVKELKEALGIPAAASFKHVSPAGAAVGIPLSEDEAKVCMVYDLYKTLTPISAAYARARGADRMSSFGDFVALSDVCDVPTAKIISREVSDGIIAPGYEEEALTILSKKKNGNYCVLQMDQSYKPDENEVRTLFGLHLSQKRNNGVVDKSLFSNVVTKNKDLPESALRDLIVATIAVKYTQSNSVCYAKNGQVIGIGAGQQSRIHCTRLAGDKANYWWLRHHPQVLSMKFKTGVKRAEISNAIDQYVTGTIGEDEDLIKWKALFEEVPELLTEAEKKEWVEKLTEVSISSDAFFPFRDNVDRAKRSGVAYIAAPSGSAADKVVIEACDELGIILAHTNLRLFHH

No constants are given. Whether binding was seen depends on the method and setting. In cells and extracts the contact can be indirect. Some binding calls cover weakened binding; strength is not graded here.

The test addresses T1, Serine hydroxymethyltransferase, cytoplasmic isoenzyme (SHMT1) (human (endogenous in T24)) (UniProt P34896).
T1 sequence: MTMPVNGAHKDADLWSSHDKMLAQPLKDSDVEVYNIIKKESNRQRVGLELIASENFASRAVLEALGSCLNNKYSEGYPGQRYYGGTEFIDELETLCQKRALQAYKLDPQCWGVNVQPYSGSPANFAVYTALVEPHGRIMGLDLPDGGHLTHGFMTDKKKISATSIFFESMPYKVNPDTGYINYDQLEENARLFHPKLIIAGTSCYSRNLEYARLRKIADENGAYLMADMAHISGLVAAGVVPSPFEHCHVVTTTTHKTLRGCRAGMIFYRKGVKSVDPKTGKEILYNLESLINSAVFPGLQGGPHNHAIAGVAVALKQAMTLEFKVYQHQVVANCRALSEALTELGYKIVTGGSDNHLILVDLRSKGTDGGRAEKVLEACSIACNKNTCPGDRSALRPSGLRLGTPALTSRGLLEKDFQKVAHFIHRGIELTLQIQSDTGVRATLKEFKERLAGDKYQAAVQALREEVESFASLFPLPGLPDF
Put plainly: co-IP; T24 cells lysed in IP lysis buffer; Protein A/G Sepharose with anti-SHMT1 antibody and anti-ATIC antibody, 4°C overnight, beads washed three times with lysis buffer; western blot of the immunoprecipitates.

Consider “5-aminoimidazole-4-carboxamide ribonucleotide formyltransferase/IMP cyclohydrolase (ATIC) (from UniProt P31939 1-592)”, for which the binding entry was “binds”.
